Results: patent US20240299448A1, “METHODS FOR PREVENTING AND TREATING CHRONIC PAIN” (priority 2023, published 2024)
For at least one compound, name, drawing or mass did not settle the structure.

Legend:
Type in all cases: in vivo, mouse
[1] = tested on: mice with chronic constriction injury (CCI) of the sciatic nerve; test: Chronic constriction injury (CCI) neuropathic pain, von Frey mechanical paw-withdrawal threshold; conditions: drug daily Day 0 to Day 6; vs saline
Experimental: Mice: CD-1 male and female mice aged 6-12 weeks (ICR:Crl, Charles River, St. Constant, QC) were used in these experiments. All mice were housed in standard shoebox cages with 2-4 (same-sex) per cage in a light (14:10 h, lights on at 07:00 h) and temperature-controlled (20±1° C.) environment with ad libidum access to food (Harlan Teklad 8604) and tap water. Mice were acclimated to the vivarium for 7 days post-arrival and before testing. Each mouse was used in a single drug experiment. Equal numbers of male and female mice were included in each cohort. Drugs: Dexamethasone (PromoCell, Heidelberg, Germany) was administered via daily subcutaneous injections at a dosage of 0.5 mg/kg/day. […] Before and after all injuries, mechanical paw-withdrawal threshold was measured with von Frey filaments using the up-down staircase method of Dixon (Chaplan et al., 1994), as previously described (Mogil et al., 2006). […] To quantify the acute effects of drugs on mechanical thresholds during drug exposure (on Day 4-6 after CCI or CFA), the percentage of maximum possible allodynia was quantified as: % allodynia=[(baseline threshold−post-drug threshold)/baseline threshold]×100. […] To quantify the duration of the entire CCI- or CFA-induced allodynic episode, the day-by-day mechanical thresholds of each subject was considered. […]

[2] = tested on: mice with nerve growth factor (NGF) injected into the muscles of the low back; test: NGF myofascial low back pain, von Frey mechanical paw-withdrawal threshold; conditions: dexamethasone 0.5 mg/kg/day s.c.; vs saline
[3] = tested on: mice with hind paw injection of complete Freund's adjuvant (CFA); test: CFA inflammatory pain, von Frey mechanical paw-withdrawal threshold
Experimental: Mice: CD-1 male and female mice aged 6-12 weeks (ICR:Crl, Charles River, St. Constant, QC) were used in these experiments. All mice were housed in standard shoebox cages with 2-4 (same-sex) per cage in a light (14:10 h, lights on at 07:00 h) and temperature-controlled (20±1° C.) environment with ad libidum access to food (Harlan Teklad 8604) and tap water. Mice were acclimated to the vivarium for 7 days post-arrival and before testing. Each mouse was used in a single drug experiment. Equal numbers of male and female mice were included in each cohort.
Drugs: Dexamethasone (PromoCell, Heidelberg, Germany) was administered via daily subcutaneous injections at a dosage of 0.5 mg/kg/day. Diclofenac, morphine, and gabapentin were administered via intraperitoneal (i.p.) injection at a dose of 25 mg/kg/day, 5 mg/kg/day, and 100 mg/kg/day, respectively. Lidocaine was administered via subcutaneous (s.c.) injection of 20 μl of 2% lidocaine into the plantar hind paw. All drugs other than dexamethasone were purchased from Sigma-Aldrich (St. Louis, MO, USA). Anti-Ly6G (BioX Cell [InVivoPlus anti-mouse Ly6G/Ly6C (Gr-1)]) and its isotype control (BioX Cell [InVivoPlus rat IgG2b isotype control, anti-keyhole limpet hemocyanin]) were injected at a dose of 125 μg/day. S100A8 and S100A9 were injected (10 μl) into the plantar surface of the inflamed (see below) hind paw at a dose of 1 μg/day. […]
Before and after all injuries, mechanical paw-withdrawal threshold was measured with von Frey filaments using the up-down staircase method of Dixon (Chaplan et al., 1994), as previously described (Mogil et al., 2006). […]
Data analysis: Time course data of von Frey thresholds are shown graphically. To quantify the acute effects of drugs on mechanical thresholds during drug exposure (on Day 4-6 after CCI or CFA), the percentage of maximum possible allodynia was quantified as: % allodynia=[(baseline threshold−post-drug threshold)/baseline threshold]×100. […]

[4] = tested on: CD-1 mice with plantar incision in the hind paw; test: Plantar incision postoperative pain, von Frey mechanical sensitivity; conditions: DEXA 0.5 mg/kg/day s.c. from the day before surgery to day 6; without beraprost
Experimental: CD-1 mice were housed in conventional shoebox cages with 3-4 mice per cage, in temperature-controlled environment (20±1° C.), on a 12:12 h light/dark cycle, with ad libitum access to filtered water and chow (Envigo Teklad 2920x, irradiated). All mice underwent plantar incision in the right hind paw. Mice were anesthetized with 5% isoflurane at 2 L/min into a sealed induction chamber then maintained with 2.5% isoflurane at 500 mL/min through a nose cone. A 5-mm longitudinal incision was created, the flexor digitorum brevis muscle was elevated, and then a longitudinal incision was made through it. Two skin sutures closed the wound, and Polysporin antibiotic was applied. The mice were subcutaneously injected with either dexamethasone (DEXA; 0.5 mg/kg/day) or saline (PBS) once per day from the day before surgery to day 6 after surgery. Also, mice were administered 100 ug/kg/day (p.o.) of beraprost sodium, a PTGIR agonist, or saline from day 5 to 8 after plantar incision surgery. Mechanical sensitivity tests were performed using von Frey filaments (using the up-down method of Dixon) before and after the surgery on days 1, 7, 9, 14, 21 and 35. Mice were individually acclimated for at least 1 hour in transparent Plexiglas enclosures (5 cm×8.5 cm by 6 cm) before withdrawal thresholds were measured.

[5] = tested on: mice with CFA injection; test: Paw edema after CFA injection (variation in dorso-palmar diameter); conditions: across 40 days post-CFA injection; dexamethasone vs saline

C[C@@H]1C[C@H]2[C@@H]3CCC4=CC(=O)C=C[C@]4(C)[C@@]3(F)[C@@H](O)C[C@]2(C)[C@@]1(O)C(=O)CO [dexamethasone, Dexamethasone]
recovery to baseline / duration of CCI-induced allodynia [1]: delayed the recovery to baseline | allodynia from NGF on day 6 post-injection [2]: robust inhibition | recovery to baseline after NGF [2]: delayed the recovery to baseline | recovery to baseline after CFA ([3]; dexamethasone 0.5 mg/kg/day s.c. Day 0 to Day 6, vs saline): delayed the recovery to baseline | allodynia from CFA on day 6 post-injection ([3]; dexamethasone 0.5 mg/kg/day s.c., vs saline): robust inhibition | increase of the duration of the overall pain episode after CFA ([3]; dexamethasone treatment vs saline, on average): by two-fold on average | allodynia after plantar incision [4]: long-lasting allodynia | paw edema [5]: No difference in paw edema
